Results from article PMC4357442.
No constants are given. Whether binding was seen depends on the method and setting. For some assays here: Binding seen in cells or lysates may run through a third protein. Some binding calls cover weakened binding; strength is not graded here. Sequences can lack the tags named with a protein.

T1: Mms21-3HA (S. cerevisiae (budding yeast)) (UniProt P38632)
T1 sequence: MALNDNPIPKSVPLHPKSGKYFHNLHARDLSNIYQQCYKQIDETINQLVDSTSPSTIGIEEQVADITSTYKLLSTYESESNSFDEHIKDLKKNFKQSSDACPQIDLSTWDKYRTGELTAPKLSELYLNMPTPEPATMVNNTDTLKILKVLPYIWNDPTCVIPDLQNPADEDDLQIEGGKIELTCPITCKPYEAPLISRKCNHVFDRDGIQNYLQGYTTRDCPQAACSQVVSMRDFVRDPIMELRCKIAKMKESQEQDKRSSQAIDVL

T2: Mms21-6HA (S. cerevisiae (budding yeast)) (UniProt P38632)
T2 sequence: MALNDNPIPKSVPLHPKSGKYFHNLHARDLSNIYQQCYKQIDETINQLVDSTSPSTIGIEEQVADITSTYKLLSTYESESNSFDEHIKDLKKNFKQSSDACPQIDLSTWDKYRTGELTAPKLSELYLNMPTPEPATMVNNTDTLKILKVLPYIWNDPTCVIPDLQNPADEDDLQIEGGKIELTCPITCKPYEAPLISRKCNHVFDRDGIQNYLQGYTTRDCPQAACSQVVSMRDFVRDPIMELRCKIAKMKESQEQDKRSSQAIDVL

T3: Nse4-6HA (S. cerevisiae (budding yeast)) (UniProt P43124)
T3 sequence: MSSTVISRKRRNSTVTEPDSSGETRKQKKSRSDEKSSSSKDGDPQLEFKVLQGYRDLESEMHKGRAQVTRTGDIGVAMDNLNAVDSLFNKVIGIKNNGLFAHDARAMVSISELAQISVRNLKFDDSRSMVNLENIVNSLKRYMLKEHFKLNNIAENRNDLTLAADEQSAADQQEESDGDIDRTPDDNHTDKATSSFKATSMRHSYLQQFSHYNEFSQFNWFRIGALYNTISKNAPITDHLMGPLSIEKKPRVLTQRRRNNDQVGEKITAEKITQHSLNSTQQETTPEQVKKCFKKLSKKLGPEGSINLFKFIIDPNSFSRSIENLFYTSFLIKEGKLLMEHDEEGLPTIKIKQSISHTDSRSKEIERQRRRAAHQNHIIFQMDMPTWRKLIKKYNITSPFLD

T4: 6his-HA-Nse2 (S. cerevisiae (budding yeast)) (UniProt P38632)
T4 sequence: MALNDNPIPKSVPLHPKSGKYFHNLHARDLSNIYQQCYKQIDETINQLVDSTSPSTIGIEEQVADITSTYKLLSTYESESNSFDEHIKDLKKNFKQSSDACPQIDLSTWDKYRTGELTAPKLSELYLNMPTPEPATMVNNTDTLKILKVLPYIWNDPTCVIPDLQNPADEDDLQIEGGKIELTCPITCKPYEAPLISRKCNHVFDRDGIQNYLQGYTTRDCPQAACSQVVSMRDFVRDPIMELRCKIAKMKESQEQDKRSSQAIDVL


What was measured:
[1] = biological target: T1, Mms21-3HA (S. cerevisiae (budding yeast)); test: co-IP; Mms21-3HA immunoprecipitated from exponentially growing cells transformed with SMC5-expressing centromeric plasmids
[2] = biological target: T2, Mms21-6HA (S. cerevisiae (budding yeast)); test: co-IP; anti-HA immunoprecipitation from wild type and GALp-SMC6 smc6-1 cells expressing Smc5-9myc and Mms21-6HA, shifted to glucose for 12 h
[3] = biological target: T2, Mms21-6HA (S. cerevisiae (budding yeast)); test: co-IP; anti-HA immunoprecipitation from MMS21-6HA or NSE4-6HA yeast cells transformed with centromeric plasmids expressing SMC5-9myc alleles; western blot
[4] = biological target: T3, Nse4-6HA (S. cerevisiae (budding yeast)); test: as above
[5] = biological target: T2, Mms21-6HA (S. cerevisiae (budding yeast)); test: co-IP; anti-HA beads; Mms21-6HA immunoprecipitated from GALp-SMC5 cells expressing SMC5 or smc5-DLEL from a centromeric vector, shifted to glucose for 6 h
[6] = biological target: T4, 6his-HA-Nse2 (S. cerevisiae (budding yeast)); test: scanning force microscopy (particle volume); heterodimer co-expressed in E. coli, purified on Ni-NTA and Superdex 200; 30 ng/ul in 50 mM Tris-HCl pH 7.5, 100 mM NaCl, 2 mM MgCl2 with or without 1 mM ATP, on mica with 50 uM spermidine, imaged in air; both purified

Binder	binding [5]	binding [6]	further results
Smc5-9myc (wild type) (protein, UniProt Q08204 1-1093) MTSLIDLGRYVERTHHGEDTEPRSKRVKIAKPDLSSFQPGSIIKIRLQDFVTYTLTEFNLSPSLNMIIGPNGSGKSTFVCAVCLGLAGKPEYIGRSKKVEDFIKNGQDVSKIEITLKNSPNVTDIEYIDARDETIKITRIITRSKRRSDYLINDYQVSESVVKTLVAQLNIQLDNLCQFLSQERVEEFARLKSVKLLVETIRSIDASLLDVLDELRELQGNEQSLQKDLDFKKAKIVHLRQESDKLRKSVESLRDFQNKKGEIELHSQLLPYVKVKDHKEKLNIYKEEYERAKANLRAILKDKKPFANTKKTLENQVEELTEKCSLKTDEFLKAKEKINEIFEKLNTIRDEVIKKKNQNEYYRGRTKKLQATIISTKEDFLRSQEILAQTHLPEKSVFEDIDIKRKEIINKEGEIRDLISEIDAKANAINHEMRSIQRQAESKTKSLTTTDKIGILNQDQDLKEVRDAVLMVREHPEMKDKILEPPIMTVSAINAQFAAYLAQCVDYNTSKALTVVDSDSYKLFANPILDKFKVNLRELSSADTTPPVPAETVRDLGFEGYLSDFITGDKRVMKMLCQTSKIHTIPVSRRELTPAQIKKLITPRPNGKILFKRIIHGNRLVDIKQSAYGSKQVFPTDVSIKQTNFYQGSIMSNEQKIRIENEIINLKNEYNDRKSTLDALSNQKSGYRHELSELASKNDDINREAHQLNEIRKKYTMRKSTIETLREKLDQLKREARKDVSQKIKDIDDQIQQLLLKQRHLLSKMASSMKSLKNCQKELISTQILQFEAQNMDVSMNDVIGFFNEREADLKSQYEDKKKFVKEMRDTPEFQSWMREIRSYDQDTKEKLNKVAEKYEEEGNFNLSFVQDVLDKLESEIAMVNHDESAVTILDQVTAELRELEHTVPQQSKDLETIKAKLKEDHAVLEPKLDDIVSKISARFARLFNNVGSAGAVRLEKPKDYAEWKIEIMVKFRDNAPLKKLDSHTQSGGERAVSTVLYMIALQEFTSAPFRVVDEINQGMDSRNERIVHKAMVENACAENTSQYFLITPKLLTGLHYHEKMRIHCVMAGSWIPNPSEDPKMIHFGETSNYSFD	binds	–	binding [1]: binds; binding [2]: binds; binding [3]: binds; binding [4]: binds
smc5-DLEL-9myc (protein, UniProt Q08204 1-1093) MTSLIDLGRYVERTHHGEDTEPRSKRVKIAKPDLSSFQPGSIIKIRLQDFVTYTLTEFNLSPSLNMIIGPNGSGKSTFVCAVCLGLAGKPEYIGRSKKVEDFIKNGQDVSKIEITLKNSPNVTDIEYIDARDETIKITRIITRSKRRSDYLINDYQVSESVVKTLVAQLNIQLDNLCQFLSQERVEEFARLKSVKLLVETIRSIDASLLDVLDELRELQGNEQSLQKDLDFKKAKIVHLRQESDKLRKSVESLRDFQNKKGEIELHSQLLPYVKVKDHKEKLNIYKEEYERAKANLRAILKDKKPFANTKKTLENQVEELTEKCSLKTDEFLKAKEKINEIFEKLNTIRDEVIKKKNQNEYYRGRTKKLQATIISTKEDFLRSQEILAQTDLELKSVFEDIDIKRKEIINKEGEIRDLISEIDAKANAINHEMRSIQRQAESKTKSLTTTDKIGILNQDQDLKEVRDAVLMVREHPEMKDKILEPPIMTVSAINAQFAAYLAQCVDYNTSKALTVVDSDSYKLFANPILDKFKVNLRELSSADTTPPVPAETVRDLGFEGYLSDFITGDKRVMKMLCQTSKIHTIPVSRRELTPAQIKKLITPRPNGKILFKRIIHGNRLVDIKQSAYGSKQVFPTDVSIKQTNFYQGSIMSNEQKIRIENEIINLKNEYNDRKSTLDALSNQKSGYRHELSELASKNDDINREAHQLNEIRKKYTMRKSTIETLREKLDQLKREARKDVSQKIKDIDDQIQQLLLKQRHLLSKMASSMKSLKNCQKELISTQILQFEAQNMDVSMNDVIGFFNEREADLKSQYEDKKKFVKEMRDTPEFQSWMREIRSYDQDTKEKLNKVAEKYEEEGNFNLSFVQDVLDKLESEIAMVNHDESAVTILDQVTAELRELEHTVPQQSKDLETIKAKLKEDHAVLEPKLDDIVSKISARFARLFNNVGSAGAVRLEKPKDYAEWKIEIMVKFRDNAPLKKLDSHTQSGGERAVSTVLYMIALQEFTSAPFRVVDEINQGMDSRNERIVHKAMVENACAENTSQYFLITPKLLTGLHYHEKMRIHCVMAGSWIPNPSEDPKMIHFGETSNYSFD	binds	–	–
6his-T7-Smc5 (protein, UniProt Q08204 1-1093) MTSLIDLGRYVERTHHGEDTEPRSKRVKIAKPDLSSFQPGSIIKIRLQDFVTYTLTEFNLSPSLNMIIGPNGSGKSTFVCAVCLGLAGKPEYIGRSKKVEDFIKNGQDVSKIEITLKNSPNVTDIEYIDARDETIKITRIITRSKRRSDYLINDYQVSESVVKTLVAQLNIQLDNLCQFLSQERVEEFARLKSVKLLVETIRSIDASLLDVLDELRELQGNEQSLQKDLDFKKAKIVHLRQESDKLRKSVESLRDFQNKKGEIELHSQLLPYVKVKDHKEKLNIYKEEYERAKANLRAILKDKKPFANTKKTLENQVEELTEKCSLKTDEFLKAKEKINEIFEKLNTIRDEVIKKKNQNEYYRGRTKKLQATIISTKEDFLRSQEILAQTHLPEKSVFEDIDIKRKEIINKEGEIRDLISEIDAKANAINHEMRSIQRQAESKTKSLTTTDKIGILNQDQDLKEVRDAVLMVREHPEMKDKILEPPIMTVSAINAQFAAYLAQCVDYNTSKALTVVDSDSYKLFANPILDKFKVNLRELSSADTTPPVPAETVRDLGFEGYLSDFITGDKRVMKMLCQTSKIHTIPVSRRELTPAQIKKLITPRPNGKILFKRIIHGNRLVDIKQSAYGSKQVFPTDVSIKQTNFYQGSIMSNEQKIRIENEIINLKNEYNDRKSTLDALSNQKSGYRHELSELASKNDDINREAHQLNEIRKKYTMRKSTIETLREKLDQLKREARKDVSQKIKDIDDQIQQLLLKQRHLLSKMASSMKSLKNCQKELISTQILQFEAQNMDVSMNDVIGFFNEREADLKSQYEDKKKFVKEMRDTPEFQSWMREIRSYDQDTKEKLNKVAEKYEEEGNFNLSFVQDVLDKLESEIAMVNHDESAVTILDQVTAELRELEHTVPQQSKDLETIKAKLKEDHAVLEPKLDDIVSKISARFARLFNNVGSAGAVRLEKPKDYAEWKIEIMVKFRDNAPLKKLDSHTQSGGERAVSTVLYMIALQEFTSAPFRVVDEINQGMDSRNERIVHKAMVENACAENTSQYFLITPKLLTGLHYHEKMRIHCVMAGSWIPNPSEDPKMIHFGETSNYSFD	–	binds	–
6his-T7-Smc5(K75I) (protein, UniProt Q08204 1-1093) MTSLIDLGRYVERTHHGEDTEPRSKRVKIAKPDLSSFQPGSIIKIRLQDFVTYTLTEFNLSPSLNMIIGPNGSGISTFVCAVCLGLAGKPEYIGRSKKVEDFIKNGQDVSKIEITLKNSPNVTDIEYIDARDETIKITRIITRSKRRSDYLINDYQVSESVVKTLVAQLNIQLDNLCQFLSQERVEEFARLKSVKLLVETIRSIDASLLDVLDELRELQGNEQSLQKDLDFKKAKIVHLRQESDKLRKSVESLRDFQNKKGEIELHSQLLPYVKVKDHKEKLNIYKEEYERAKANLRAILKDKKPFANTKKTLENQVEELTEKCSLKTDEFLKAKEKINEIFEKLNTIRDEVIKKKNQNEYYRGRTKKLQATIISTKEDFLRSQEILAQTHLPEKSVFEDIDIKRKEIINKEGEIRDLISEIDAKANAINHEMRSIQRQAESKTKSLTTTDKIGILNQDQDLKEVRDAVLMVREHPEMKDKILEPPIMTVSAINAQFAAYLAQCVDYNTSKALTVVDSDSYKLFANPILDKFKVNLRELSSADTTPPVPAETVRDLGFEGYLSDFITGDKRVMKMLCQTSKIHTIPVSRRELTPAQIKKLITPRPNGKILFKRIIHGNRLVDIKQSAYGSKQVFPTDVSIKQTNFYQGSIMSNEQKIRIENEIINLKNEYNDRKSTLDALSNQKSGYRHELSELASKNDDINREAHQLNEIRKKYTMRKSTIETLREKLDQLKREARKDVSQKIKDIDDQIQQLLLKQRHLLSKMASSMKSLKNCQKELISTQILQFEAQNMDVSMNDVIGFFNEREADLKSQYEDKKKFVKEMRDTPEFQSWMREIRSYDQDTKEKLNKVAEKYEEEGNFNLSFVQDVLDKLESEIAMVNHDESAVTILDQVTAELRELEHTVPQQSKDLETIKAKLKEDHAVLEPKLDDIVSKISARFARLFNNVGSAGAVRLEKPKDYAEWKIEIMVKFRDNAPLKKLDSHTQSGGERAVSTVLYMIALQEFTSAPFRVVDEINQGMDSRNERIVHKAMVENACAENTSQYFLITPKLLTGLHYHEKMRIHCVMAGSWIPNPSEDPKMIHFGETSNYSFD	–	binds	–
